PubChem BioAssay AID1259254, NCATS | 2017
Test: 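Finding genes that stop cells copying their DNA twice in one cycle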 (primary screen). Cells: human HCT116 colorectal cancer cells. Reagents: single siRNA against human genes. Duration: 3 days. Read-out: 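Imaged Hoechst DNA stain sorts each cell into a cycle phase by DNA amount; per plate, G2 fraction set to 0% for non-targeting and 100% for GMNN siRNA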. Scale: G2 robust z-score and G2 cells, % of GMNN control: higher = more G2 cells, more excess DNA replication; raw share of cells in G2: higher = larger share of cells with G2 DNA content. Hit rule: 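An siRNA counts as active if its G2 robust z-score lies at least 5 MADs above the screen median; here such calls match roughly 38% of GMNN control or more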.
Shown is an unselected part of about 59,000 reagents tested. Over the whole deposit, about 1,550 (2.6%) are marked active. 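G2 share is only a proxy for re-replication; each gene was hit by three separate siRNAs, and active genes were retested.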 The raw values are shown without normalisation. The numbers tell different reagents against one gene apart. Not stated in the record: the amount of reagent.

no.	gene symbol	reagent	G2 robust z-score	G2 cells, % of GMNN control	raw share of cells in G2 (%)	activity call
1	ACOT7	1	0.522	6.64	9.03	inactive
2	ACOT7	2	1.46	13.2	8.57	inactive
3	ACOT7	3	0.686	7.8	6.53	inactive
4	HOATZ	1	4.66	35.8	16.8	inactive
5	HOATZ	2	4	31.1	15.9	inactive
6	HOATZ	3	-0.259	1.15	5.27	inactive
7	TMEM50A	1	0.775	8.42	6.24	inactive
8	TMEM50A	2	0.967	9.77	8.09	inactive
9	TMEM50A	3	-0.63	-1.46	3.31	inactive
10	CCT4	1	1.72	15	8.53	inactive
11	CCT4	2	3.22	25.6	17.4	inactive
12	CCT4	3	0.769	8.38	6.85	inactive
13	LINC00900	1	-1.05	-4.43	2.03	inactive
14	LINC00900	2	-0.282	0.984	3.42	inactive
15	LINC00900	3	-0.577	-1.09	2.93	inactive
16	RHBDL1	1	0.175	4.2	7.02	inactive
17	RHBDL1	2	3.4	26.9	14.4	inactive
18	RHBDL1	3	0.286	4.98	5.77	inactive
19	SHISA4	1	0.39	5.71	5.74	inactive
20	SHISA4	2	1.21	11.5	6.46	inactive
21	SHISA4	3	1.16	11.2	6.96	inactive
22	KLHL11	1	1.1	10.7	8.63	inactive
23	KLHL11	2	-0.227	1.37	4.71	inactive
24	KLHL11	3	0.943	9.6	6.2	inactive
25	EXOC3L1	1	-0.349	0.512	3.83	inactive
26	EXOC3L1	2	-1.14	-5.07	1.08	inactive
27	EXOC3L1	3	-0.713	-2.05	2.64	inactive
28	FADS3	1	1.88	16.2	11.9	inactive
29	FADS3	2	-0.317	0.735	4.51	inactive
30	FADS3	3	2.04	17.4	9.62	inactive
31	CRLF1	1	-0.519	-0.687	5.02	inactive
32	CRLF1	2	2.03	17.2	12.4	inactive
33	CRLF1	3	-0.557	-0.949	4.37	inactive
34	WDR83	1	-0.299	0.863	2.67	inactive
35	WDR83	2	1.97	16.8	9.71	inactive
36	WDR83	3	0.157	4.07	4.66	inactive
37	ATRNL1	1	-0.743	-2.26	5.14	inactive
38	ATRNL1	2	0.418	5.91	6.15	inactive
39	ATRNL1	3	1.1	10.7	7.48	inactive
40	INSRR	1	5.45	41.3	19.3	active
41	INSRR	2	1.12	10.9	9.07	inactive
42	INSRR	3	0.109	3.74	5.34	inactive
43	CLDN9	1	-0.326	0.675	3.32	inactive
44	CLDN9	2	1.65	14.6	8.23	inactive
45	CLDN9	3	-0.981	-3.93	2.15	inactive
46	ZHX3	1	0.117	3.79	7.89	inactive
47	ZHX3	2	0.719	8.03	6.84	inactive
48	ZHX3	3	-0.606	-1.3	3.42	inactive
49	FAM237A	1	-0.898	-3.35	2.4	inactive
50	FAM237A	2	-0.0665	2.5	3.8	inactive
51	FAM237A	3	0.599	7.18	5.03	inactive
52	NBN	1	1.32	12.3	10.2	inactive
53	NBN	2	-0.11	2.19	5.09	inactive
54	NBN	3	-0.788	-2.58	2.42	inactive
55	SRP14	1	2.66	21.7	11.1	inactive
56	SRP14	2	0.281	4.95	7.35	inactive
57	SRP14	3	0.0666	3.44	5.72	inactive
58	MORN1	1	-1.04	-4.33	2.65	inactive
59	MORN1	2	-0.434	-0.0845	4.27	inactive
60	MORN1	3	-0.348	0.518	2.52	inactive
61	RGL3	1	-0.597	-1.23	3.86	inactive
62	RGL3	2	2.64	21.6	14.8	inactive
63	RGL3	3	-0.283	0.98	3.34	inactive
64	ALDH16A1	1	2.06	17.5	12.5	inactive
65	ALDH16A1	2	1.11	10.8	10.7	inactive
66	ALDH16A1	3	-1.04	-4.32	2.85	inactive
67	MYL9	1	-0.158	1.86	7.21	inactive
68	MYL9	2	-0.142	1.97	4.48	inactive
69	MYL9	3	-0.778	-2.51	4.61	inactive
70	PCYT1B	1	-0.0302	2.76	4.14	inactive
71	PCYT1B	2	4.46	34.3	18.2	inactive
72	PCYT1B	3	0.3	5.08	6.81	inactive
73	LRRC8A	1	-0.655	-1.64	3.7	inactive
74	LRRC8A	2	-0.765	-2.42	3.31	inactive
75	LRRC8A	3	-0.124	2.09	3.69	inactive
76	DPH7	1	3.48	27.4	15.7	inactive
77	DPH7	2	-0.379	0.302	3.1	inactive
78	DPH7	3	0.902	9.31	5.88	inactive
79	PPP1CB	1	3.9	30.4	14.7	inactive
80	PPP1CB	2	1.24	11.7	7.81	inactive
81	PPP1CB	3	3.68	28.8	12.2	inactive
82	GAS2	1	-0.577	-1.09	4.79	inactive
83	GAS2	2	-0.61	-1.33	3.6	inactive
84	GAS2	3	-0.901	-3.37	2.2	inactive
85	H2AC4	1	0.399	5.78	7.69	inactive
86	H2AC4	2	-0.854	-3.04	2.69	inactive
87	H2AC4	3	3.08	24.6	12	inactive

Called active, among the entries above:
gene symbol	reagent	G2 robust z-score	G2 cells, % of GMNN control	raw share of cells in G2 (%)	activity call
INSRR	1	5.45	41.3	19.3	active
